# Results of single-concentration screens

Protein sequences, listed by entry. Tags and fused reporters are not part of them. Residues count along the entry.
UniProt P9WFT3, whole entry: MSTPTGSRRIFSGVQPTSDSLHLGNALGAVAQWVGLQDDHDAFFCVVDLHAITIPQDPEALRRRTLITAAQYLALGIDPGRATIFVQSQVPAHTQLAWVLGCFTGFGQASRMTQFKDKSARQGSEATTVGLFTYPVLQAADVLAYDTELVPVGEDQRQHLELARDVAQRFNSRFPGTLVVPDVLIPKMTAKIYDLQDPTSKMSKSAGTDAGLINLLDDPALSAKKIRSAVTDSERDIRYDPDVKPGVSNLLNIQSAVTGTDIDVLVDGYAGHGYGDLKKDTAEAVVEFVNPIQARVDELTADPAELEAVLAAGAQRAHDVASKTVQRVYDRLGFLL
UniProt A4I591, 1-473: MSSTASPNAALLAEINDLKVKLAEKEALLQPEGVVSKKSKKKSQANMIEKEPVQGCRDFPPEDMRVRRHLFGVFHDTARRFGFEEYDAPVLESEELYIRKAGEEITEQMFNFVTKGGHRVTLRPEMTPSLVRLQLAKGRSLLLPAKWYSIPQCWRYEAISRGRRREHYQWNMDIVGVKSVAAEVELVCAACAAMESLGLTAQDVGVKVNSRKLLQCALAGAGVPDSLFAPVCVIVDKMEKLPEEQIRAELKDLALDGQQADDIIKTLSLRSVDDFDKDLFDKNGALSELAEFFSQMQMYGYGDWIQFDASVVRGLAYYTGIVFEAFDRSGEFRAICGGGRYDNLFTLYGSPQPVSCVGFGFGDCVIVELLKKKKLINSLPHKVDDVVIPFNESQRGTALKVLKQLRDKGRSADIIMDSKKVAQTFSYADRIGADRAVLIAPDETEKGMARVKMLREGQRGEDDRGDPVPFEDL

Measurements from “University of Dundee, Small-Polar-MMV Screening Library” (2021), ChEMBL document CHEMBL3988442.

MtTrpRS: 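Enzyme assay of tryptophanyl-tRNA synthetase; the read-out is not stated. Target: Tryptophan-tRNA ligase, Mycobacterium tuberculosis (UniProt P9WFT3). Tested at 10 µM. Direction is not recorded; retested compounds ran higher, which suggests that high means inhibition. About 65,000 compounds were tested under these conditions; 0.098% (about 64) showed 50% or more at least once.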
LiHisRS: 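Enzyme assay of histidyl-tRNA synthetase; the read-out is not stated. Target: Histidine-tRNA ligase, Leishmania infantum (UniProt A4I591). Compounds at 30 µM. Direction is inferred from retests: higher values go with stronger inhibition. The assay is labelled LdHisRS but filed under L. infantum. Of about 69,000 compounds tested this way, about 410 (0.6%) reached 50% or more in at least one test.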

The filed quantity is “Percent Effect” (%).
How 0% and 100% were set is not recorded. Most values in the screen are low, and negative values occur.
Compounds were drawn at random from those tested, without regard to their results.
A dash means the value is not listed here; it may have been measured.

| structure | MtTrpRS | LiHisRS |
|---|---|---|
| `CN1CCN(C(=O)c2ncn3c2CN(C)S(=O)(=O)c2ccccc2-3)CC1` | 0.2945% | 24.47% |
| `O=C(c1ccncc1)N1CCc2ncnc(C3CC3)c2CC1` | -3.26% | 17% |
| `COCCN1C(=O)[C@]2(CC[C@@H]3CN(C(=O)NC4CCCC4)C[C@@H]32)N=C1C` | -4.722% | 15.09% |
| `COCCCNc1c(-c2ccc(Cl)cc2)c(=O)c1=O` | -6.616% | 13.7% |
| `O=C(NCCCN1CCOCC1)C1CCCN(Cc2ccco2)C1` (stereo not given) | -1.859% | 4.167% |
| `COc1ccc(CNc2nc(N3CCOCC3)ns2)cc1` | -6.078% | 6.306% |
| `CCn1c(CN(C)C)nnc1C1CCN(Cc2ccc(Cl)cc2)CC1` | 2.246% | 15.2% |
| `O=C(c1cc(F)ccc1F)C1CCN(C(=O)c2ccco2)CC1` | 0.2508% | 7.965% |
| `CCc1c(C)nc2n(c1=O)CC(C(=O)Nc1nc3c(s1)CCCC3)CS2` (stereo not given) | 5.402% | 18.45% |
| `Cn1ccc(-c2cc(C(=O)N3CCC(O)CC3)c3ccccn23)n1` | - | 17.27% |
| `CS(=O)(=O)N1CCO[C@@H]2CCN(C(=O)c3cccs3)CC[C@H]21` | 0.0969% | 15.38% |
| `Cc1nc[nH]c1CN1CCN(C(=O)CCC(F)(F)F)[C@H]2CS(=O)(=O)C[C@H]21` | 1.42% | 19.05% |
| `COc1ncccc1C(=O)N1CC(c2nc(-c3ccccn3)no2)C1` | -2.129% | 1.695% |
| `CC(C1CC1)N(C(=O)CNc1ccc(C#N)cc1)C1CC1` (stereo not given) | -1.371% | 14.47% |
| `Cc1cc(CN(C)c2nc(-c3ccccn3)nc3c2CCNCC3)n[nH]1` | -2.169% | 28.77% |
| `Cc1cnn(CCNCc2csc(-c3ccc(C(N)=O)cc3)n2)c1` | -9.102% | 17.86% |
| `O=C(Cn1ccc2sccc2c1=O)NCCCc1ccccc1` | -3.421% | -1.087% |
| `Cn1cc(Cl)c(C(=O)N2CCCN(C3Cc4ccccc4C3)CC2)n1` | 8.149% | 20% |
| `CN(C)C(=O)c1cc2c(nc1NCC1CC1)CCNCC2` | 4.628% | 4.167% |
| `Cc1cnn(CC2CCCN2Cc2nc3ccccc3n2C)c1` (stereo not given) | 3.068% | 3.371% |
| `Cn1ncc2c(=O)[nH]c(CN3CCCc4cc(F)ccc43)nc21` | -2.377% | 18.33% |
| `NC(=O)C1CCN(S(=O)(=O)c2cnn(-c3ccccc3)c2)C1` (stereo not given) | -1.06% | 5.759% |
| `CCn1nc(CC(C)C)cc1C(=O)NCC(F)(F)F` | -0.7337% | -8.989% |
| `Cn1ccnc1SCC(=O)NCCC1CCCO1` (stereo not given) | 8.256% | 10.83% |
| `Cc1cc(N2CCCN(CCc3ccccc3)CC2)ccn1` | 3.428% | 13.7% |
| `CN1CCC(N(CCc2ccccc2)C(=O)c2cc[nH]c2)CC1` | -0.4666% | 14.13% |
| `Cn1cc(C(=O)Nc2cccc(Oc3ccncc3)c2)ccc1=O` | -7.235% | 5.882% |
| `O=C(CC1OCCc2ccccc21)NCC1(O)CCCCC1` (stereo not given) | -5.005% | -1.493% |
| `NC(=O)CCOc1ccc(NC(=O)c2ccccc2OC(F)F)cc1` | -0.2865% | 32.88% |
| `Cc1ccc(C(=O)N2CC[C@@]3(C[C@@H](NS(C)(=O)=O)CCO3)C2)s1` | -1.72% | 18% |
| `CNC(=O)CSC(C)c1ccc(Br)cc1` (stereo not given) | -3.816% | 9.091% |
| `CCn1cc(CN2C[C@H]3CC[C@@H]2CN(C(=O)c2ccncc2)C3)cn1` | 11.09% | -1.01% |
| `CC(=O)N1[C@H](Cn2cncn2)C[C@@H]2CN(c3ccc(C)nn3)CC[C@@H]21` | -1.077% | 6.604% |
| `CC(O)CN1CCN(Cc2coc(-c3ccccc3Cl)n2)CC1` (stereo not given) | -0.08223% | 15.69% |
| `CN(C)C(=O)N1CCC[C@]2(C(=O)N(C)C)CN(c3ccccn3)C[C@@H]2C1` | 0.4433% | 8.333% |
| `Cc1ccc(CN2CCC(NC(=O)c3scnc3C)CC2)cc1` | 24.01% | 3.571% |
| `Cc1nn(C)c(C)c1C(=O)NC(C)CC(=O)c1cccs1` (stereo not given) | 3.168% | 2.381% |
| `Cn1cc(C(NCCc2ccccn2)c2cccc(F)c2)cn1` (stereo not given) | -3.116% | -5.882% |
| `COc1ccccc1C1(CNc2nnc(C)c(C)c2C#N)CCOCC1` | -5.732% | 36.99% |
| `Cc1noc(NC(=O)c2cccc(Br)c2)n1` | -5.716% | 13.16% |
| `COCCNC(=O)N1CCC(NC(C)C)CC1` | 6.307% | 11.84% |
| `CC(Oc1ccc2c(c1)OCO2)C(=O)N1CCC(N2CCCC2)CC1` (stereo not given) | 4.918% | 15% |
| `CNS(=O)(=O)c1cccc(C(C)NCc2ccccc2OC)c1` (stereo not given) | -2.16% | 2.679% |
| `CSc1[nH]nc(NC(=O)c2cccnc2)c1C#N` | 7.443% | 23.08% |
| `c1cc2c(cc1C1CCCN1Cc1nnnn1C1CC1)OCCO2` (stereo not given) | 13.08% | 14.42% |
| `CN(C)c1nc(NCCCN2CCc3ccccc32)ncc1F` | -4.16% | -3.448% |
| `COCCN(C)C(C(=O)O)c1ccc(C)c(C)c1` (stereo not given) | 1.652% | 24.19% |
| `O=S(=O)(CCCN1CCCC1Cn1cncn1)c1ccccc1` (stereo not given) | 0.807% | 28.12% |
| `Cc1ccn(-c2ccc(NCc3cccnc3N3CCCCC3)nn2)n1` | 14.06% | 22.67% |
| `O=C(Cc1ccc(-n2cnnn2)cc1)Nc1nncs1` | 0.7333% | 17.65% |
| `CN1C[C@@H](C(=O)NC2CC2)[C@@]2(COc3ccc(F)cc3C2=O)C1` | 5.409% | -1.408% |
| `Cc1nn(C)c(Cl)c1C1CCCN1C(=O)c1cnn(C)c1C1CC1` (stereo not given) | -4.78% | 19.3% |
| `O=c1cc(N2CCCCC2)cnn1C[C@H](O)CO` | 2.323% | 22.34% |
| `CN(C)c1ccc(CNCc2ccc(N3CCOCC3)cc2)cn1` | -8.978% | 5.208% |
| `c1ccc2sc(CN3CCOC(Cn4cncn4)C3)nc2c1` (stereo not given) | -3.365% | 0% |
| `CCc1nnc2n1CCN(Cc1nc3c(F)cccc3[nH]1)C2` | 5.176% | 7.229% |
| `COc1ccc(C2CCCN2Cc2nc3c(cnn3C)c(=O)[nH]2)cc1` (stereo not given) | -7.025% | 3.636% |
| `CCCc1nn(Cc2ccc(Br)s2)c(=O)o1` | 0.306% | 3.614% |
| `COc1ccc(NC(=O)N2CCC(CSC)C2)cc1C` (stereo not given) | 1.234% | 21.57% |
| `CN(Cc1ccc2c(c1)OCO2)C(=O)C1CC(c2cccc(F)c2)=NO1` (stereo not given) | 2.808% | 8.861% |
| `COCCn1ccnc1C1CCCN(c2ncnc3c(C)csc23)C1` (stereo not given) | 2.511% | 18.75% |
| `CSCC[C@H](NC(=O)CCn1ccc2c(Br)cccc21)C(=O)O` | 2.871% | 23.68% |
| `CN(Cc1ccc2c(c1)OCO2)Cc1nc2c(cnn2C)c(=O)[nH]1` | -3.411% | 10.61% |
| `CCN1CCc2[nH]cnc2C12CCN(c1ncc(C(=O)O)cc1Cl)CC2` | -4.914% | 23.94% |
| `Cc1nc(-c2ccc(Cl)cc2)n(CC(=O)NC(C)C)c(=O)c1CCO` | 2.72% | 21.74% |
| `NS(=O)(=O)CCN1CCOC(c2ccsc2)C1` (stereo not given) | -2.017% | 7.563% |
| `Cc1cccc(C(=O)N2CCCSCC2CN2CCCC2)c1` (stereo not given) | -0.1696% | 20.55% |
| `CCn1ccnc1C1CCN(C(=O)Nc2ccc(OC)cc2)CC1` | -4.567% | 3.279% |
| `CC(C)NC(=O)C1(Cc2ccccc2-c2cccs2)CCNC1` (stereo not given) | 0.5217% | 7.368% |
| `CS(=O)(=O)CCCOc1cccc(-n2ccnc2)c1` | 1.421% | 10.34% |
| `O=C1NC2(CCN(Cc3cccnc3)CC2)CC1c1ccncc1` (stereo not given) | -0.8629% | 15.69% |
| `Cc1cc(C)c2c(N(C)CC3COCCO3)ncnc2n1` (stereo not given) | -8.038% | 10.53% |
| `CN(Cc1cnn(C)c1)S(=O)(=O)N1CCCC1c1ccco1` (stereo not given) | -8.922% | 15.38% |
| `Cc1nccn1-c1cncc(C2CCCN2Cc2cccnc2)n1` (stereo not given) | - | 7.246% |
| `Cn1cccc1C(=O)NCc1cn2c(n1)CN(CC1CCOC1)CC2` (stereo not given) | 5.686% | -5% |
| `COc1ccc2c(c1)OCC(CNC(=O)c1ccc(=O)n(C)c1)C2` (stereo not given) | -0.08353% | 15.24% |
| `NCc1ccc(Oc2ccc(F)c(F)c2)cc1C(F)(F)F` | -2.694% | 18.58% |
| `Cc1ccoc1C(=O)N1CCc2ncnc(-c3cnn(C)c3)c2CC1` | 21.32% | 8.333% |
| `OCC1(NCc2cccc(-n3cccn3)c2)CCOCC1` | -6.345% | 9.333% |

6 of the entries, repeated:

structure,MtTrpRS,LiHisRS
O=c1cc(N2CCCCC2)cnn1C[C@H](O)CO,2.323%,22.34%
CS(=O)(=O)CCCOc1cccc(-n2ccnc2)c1,1.421%,10.34%
CN(Cc1ccc2c(c1)OCO2)C(=O)C1CC(c2cccc(F)c2)=NO1 (stereo not given),2.808%,8.861%
CSc1[nH]nc(NC(=O)c2cccnc2)c1C#N,7.443%,23.08%
CC(C)NC(=O)C1(Cc2ccccc2-c2cccs2)CCNC1 (stereo not given),0.5217%,7.368%
Cc1nc[nH]c1CN1CCN(C(=O)CCC(F)(F)F)[C@H]2CS(=O)(=O)C[C@H]21,1.42%,19.05%